Results taken from publication PMC3419192.
No constants are given. Whether binding was seen depends on the method and setting. Binding seen in cells or lysates may run through a third protein. Some entries that bind do so weakly or less than the wild type. Where a sequence is shown, tags or fusion partners need not be part of it.

Protein sequences, listed by entry. Tags and fused reporters are not part of them.
UniProt P23804: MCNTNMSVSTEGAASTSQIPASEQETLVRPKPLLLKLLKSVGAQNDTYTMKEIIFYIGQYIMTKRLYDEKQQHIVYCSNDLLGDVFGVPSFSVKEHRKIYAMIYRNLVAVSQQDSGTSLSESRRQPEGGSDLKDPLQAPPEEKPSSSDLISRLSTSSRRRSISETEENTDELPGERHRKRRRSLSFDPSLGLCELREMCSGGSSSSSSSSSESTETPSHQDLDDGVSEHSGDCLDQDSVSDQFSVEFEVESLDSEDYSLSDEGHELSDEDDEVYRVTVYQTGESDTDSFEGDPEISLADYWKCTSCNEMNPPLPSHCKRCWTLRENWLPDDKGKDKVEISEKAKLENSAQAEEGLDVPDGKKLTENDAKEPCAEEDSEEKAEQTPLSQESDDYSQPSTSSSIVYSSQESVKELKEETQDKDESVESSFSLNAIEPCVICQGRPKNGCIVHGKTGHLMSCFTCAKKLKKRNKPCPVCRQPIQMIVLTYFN

Legend:
[1] = target: T1, FLAG-necdin, full-length (pCMV-FLAG-Necdin) (UniProt P25233); assay: co-IP; Dynabeads Protein A with anti-CCAR1, anti-MDM2, anti-necdin or unspecific IgG; 1.5 mg extract of C2C12 transfected with pCMV-FLAG-Necdin, pCMV-Tag3b-Myc-MDM2 and pSG5-HA-CCAR1, or of Tibialis anterior of tgMlcNec mice, 5 h at 4 °C; western blot
T1 sequence: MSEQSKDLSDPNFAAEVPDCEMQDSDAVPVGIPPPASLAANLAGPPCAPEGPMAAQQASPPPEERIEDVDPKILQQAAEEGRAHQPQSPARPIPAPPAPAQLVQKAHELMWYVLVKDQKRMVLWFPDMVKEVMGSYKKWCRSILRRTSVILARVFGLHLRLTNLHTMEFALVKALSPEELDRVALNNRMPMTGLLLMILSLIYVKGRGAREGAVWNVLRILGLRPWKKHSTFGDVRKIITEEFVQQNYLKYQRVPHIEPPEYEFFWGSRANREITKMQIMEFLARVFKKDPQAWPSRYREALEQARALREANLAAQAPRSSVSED

HA-CCAR1 (pSG5-HA-CCAR1) = target: T2, HA-CCAR1 (pSG5-HA-CCAR1) (UniProt Q8CH18); assay: as above
T2 sequence: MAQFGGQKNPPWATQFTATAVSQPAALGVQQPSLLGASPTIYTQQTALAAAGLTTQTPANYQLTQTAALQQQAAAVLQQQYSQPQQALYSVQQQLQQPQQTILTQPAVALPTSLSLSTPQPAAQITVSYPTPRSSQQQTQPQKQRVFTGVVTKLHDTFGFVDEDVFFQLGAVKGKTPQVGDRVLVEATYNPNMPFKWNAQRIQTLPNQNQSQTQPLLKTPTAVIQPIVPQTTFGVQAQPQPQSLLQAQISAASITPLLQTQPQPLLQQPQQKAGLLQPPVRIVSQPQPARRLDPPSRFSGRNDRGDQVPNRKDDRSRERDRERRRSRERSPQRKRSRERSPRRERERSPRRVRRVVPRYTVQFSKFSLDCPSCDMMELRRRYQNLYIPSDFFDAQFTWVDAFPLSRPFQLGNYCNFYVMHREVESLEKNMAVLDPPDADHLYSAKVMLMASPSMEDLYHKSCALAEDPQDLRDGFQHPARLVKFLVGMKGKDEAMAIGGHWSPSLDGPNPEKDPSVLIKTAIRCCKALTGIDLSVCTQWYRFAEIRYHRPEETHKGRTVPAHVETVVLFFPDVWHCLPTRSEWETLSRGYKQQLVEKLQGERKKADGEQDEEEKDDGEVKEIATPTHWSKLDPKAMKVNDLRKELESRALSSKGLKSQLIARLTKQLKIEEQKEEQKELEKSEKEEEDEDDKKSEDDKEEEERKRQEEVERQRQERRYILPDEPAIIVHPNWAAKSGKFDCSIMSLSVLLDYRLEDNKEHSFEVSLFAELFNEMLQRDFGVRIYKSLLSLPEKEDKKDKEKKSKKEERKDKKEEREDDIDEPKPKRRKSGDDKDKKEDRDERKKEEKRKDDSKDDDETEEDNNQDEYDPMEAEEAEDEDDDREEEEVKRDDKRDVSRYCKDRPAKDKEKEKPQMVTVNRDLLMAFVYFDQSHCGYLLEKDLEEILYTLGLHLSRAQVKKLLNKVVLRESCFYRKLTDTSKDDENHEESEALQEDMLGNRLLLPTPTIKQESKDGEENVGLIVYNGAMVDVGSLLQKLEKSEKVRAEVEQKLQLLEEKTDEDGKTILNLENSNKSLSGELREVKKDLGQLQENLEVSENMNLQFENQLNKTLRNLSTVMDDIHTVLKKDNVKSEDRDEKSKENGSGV

Myc-MDM2, full-length (pCMV-Tag3b-Myc-MDM2) (from UniProt P23804 1-489)
binding [1]: binds | binding (HA-CCAR1 (pSG5-HA-CCAR1)): binds
